# Measured values as given in paper PMC7939390 (The Journal of Biological Chemistry, 2020).
# Protein sequences, listed by entry. Tags and fused reporters are not part of them. Lines headed by an entry give the natural chain unless they say otherwise; changes in a name come on top.
# UniProt P0A6S5: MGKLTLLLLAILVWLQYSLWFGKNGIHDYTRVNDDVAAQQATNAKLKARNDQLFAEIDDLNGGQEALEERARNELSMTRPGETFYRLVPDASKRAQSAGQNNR
# UniProt P0AEN4: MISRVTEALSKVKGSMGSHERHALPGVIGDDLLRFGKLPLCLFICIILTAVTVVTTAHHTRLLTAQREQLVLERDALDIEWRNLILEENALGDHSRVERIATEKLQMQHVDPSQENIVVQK
# UniProt P06136: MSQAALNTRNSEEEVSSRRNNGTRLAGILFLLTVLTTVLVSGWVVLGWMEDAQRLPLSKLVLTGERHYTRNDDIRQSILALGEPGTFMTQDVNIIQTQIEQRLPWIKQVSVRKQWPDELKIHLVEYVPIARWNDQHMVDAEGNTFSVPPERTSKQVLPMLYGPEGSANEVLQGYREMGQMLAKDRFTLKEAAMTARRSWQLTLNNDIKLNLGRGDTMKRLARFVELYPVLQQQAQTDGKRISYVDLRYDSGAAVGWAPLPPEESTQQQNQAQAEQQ
# No constants are given. Whether binding was seen depends on the method and setting. Some entries that bind do so weakly or less than the wild type. For part of these data: Tags and fused reporters may be left off the sequences shown.
# T1: HisFtsN (full-length FtsN) (E. coli) (UniProt P29131)
# T1 sequence: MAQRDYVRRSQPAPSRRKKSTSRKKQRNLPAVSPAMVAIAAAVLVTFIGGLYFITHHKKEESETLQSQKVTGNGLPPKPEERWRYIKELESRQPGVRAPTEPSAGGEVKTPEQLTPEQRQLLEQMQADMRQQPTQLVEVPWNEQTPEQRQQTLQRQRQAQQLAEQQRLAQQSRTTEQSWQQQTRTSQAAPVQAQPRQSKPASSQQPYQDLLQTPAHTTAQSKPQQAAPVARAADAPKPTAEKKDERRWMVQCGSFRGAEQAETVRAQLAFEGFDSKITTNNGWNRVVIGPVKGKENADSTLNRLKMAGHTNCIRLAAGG
# T2: HisFtsN130 (FtsN Met1–Arg130) (E. coli) (UniProt P29131)
# T2 sequence: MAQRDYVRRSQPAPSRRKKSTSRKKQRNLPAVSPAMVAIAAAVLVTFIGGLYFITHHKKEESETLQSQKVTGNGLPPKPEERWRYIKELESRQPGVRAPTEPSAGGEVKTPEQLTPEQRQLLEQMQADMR
# T3: FtsW–PBP3 complex (E. coli) (UniProt P0ABG4+P0AD68)
# T3 sequence 1: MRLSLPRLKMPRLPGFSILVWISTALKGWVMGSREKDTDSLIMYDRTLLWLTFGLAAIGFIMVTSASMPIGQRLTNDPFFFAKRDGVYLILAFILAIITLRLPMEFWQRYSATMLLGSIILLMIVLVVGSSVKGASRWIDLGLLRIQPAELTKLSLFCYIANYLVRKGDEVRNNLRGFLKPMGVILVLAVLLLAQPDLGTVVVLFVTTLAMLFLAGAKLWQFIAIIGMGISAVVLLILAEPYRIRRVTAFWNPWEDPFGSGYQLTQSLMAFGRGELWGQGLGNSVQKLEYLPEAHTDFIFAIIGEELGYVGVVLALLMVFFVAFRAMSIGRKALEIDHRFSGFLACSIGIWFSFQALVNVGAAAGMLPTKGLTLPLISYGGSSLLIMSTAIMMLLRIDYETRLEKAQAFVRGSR
# T3 sequence 2: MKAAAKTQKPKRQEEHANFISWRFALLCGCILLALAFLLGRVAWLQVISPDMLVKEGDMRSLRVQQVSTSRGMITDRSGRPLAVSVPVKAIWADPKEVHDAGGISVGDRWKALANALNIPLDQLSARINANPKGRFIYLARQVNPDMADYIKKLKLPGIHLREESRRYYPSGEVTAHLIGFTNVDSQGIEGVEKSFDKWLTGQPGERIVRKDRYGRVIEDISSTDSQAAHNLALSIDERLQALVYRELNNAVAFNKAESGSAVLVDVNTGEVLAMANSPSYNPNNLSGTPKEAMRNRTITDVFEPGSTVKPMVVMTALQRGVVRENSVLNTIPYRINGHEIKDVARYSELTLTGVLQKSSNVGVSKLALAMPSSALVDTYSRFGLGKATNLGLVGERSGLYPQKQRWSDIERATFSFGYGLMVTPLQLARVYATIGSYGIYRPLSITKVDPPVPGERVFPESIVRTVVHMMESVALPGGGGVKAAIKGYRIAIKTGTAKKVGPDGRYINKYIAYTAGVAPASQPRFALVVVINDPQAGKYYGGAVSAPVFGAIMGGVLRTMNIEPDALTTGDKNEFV
# T4: PBP1a (E. coli) (UniProt P02918)
# T4 sequence: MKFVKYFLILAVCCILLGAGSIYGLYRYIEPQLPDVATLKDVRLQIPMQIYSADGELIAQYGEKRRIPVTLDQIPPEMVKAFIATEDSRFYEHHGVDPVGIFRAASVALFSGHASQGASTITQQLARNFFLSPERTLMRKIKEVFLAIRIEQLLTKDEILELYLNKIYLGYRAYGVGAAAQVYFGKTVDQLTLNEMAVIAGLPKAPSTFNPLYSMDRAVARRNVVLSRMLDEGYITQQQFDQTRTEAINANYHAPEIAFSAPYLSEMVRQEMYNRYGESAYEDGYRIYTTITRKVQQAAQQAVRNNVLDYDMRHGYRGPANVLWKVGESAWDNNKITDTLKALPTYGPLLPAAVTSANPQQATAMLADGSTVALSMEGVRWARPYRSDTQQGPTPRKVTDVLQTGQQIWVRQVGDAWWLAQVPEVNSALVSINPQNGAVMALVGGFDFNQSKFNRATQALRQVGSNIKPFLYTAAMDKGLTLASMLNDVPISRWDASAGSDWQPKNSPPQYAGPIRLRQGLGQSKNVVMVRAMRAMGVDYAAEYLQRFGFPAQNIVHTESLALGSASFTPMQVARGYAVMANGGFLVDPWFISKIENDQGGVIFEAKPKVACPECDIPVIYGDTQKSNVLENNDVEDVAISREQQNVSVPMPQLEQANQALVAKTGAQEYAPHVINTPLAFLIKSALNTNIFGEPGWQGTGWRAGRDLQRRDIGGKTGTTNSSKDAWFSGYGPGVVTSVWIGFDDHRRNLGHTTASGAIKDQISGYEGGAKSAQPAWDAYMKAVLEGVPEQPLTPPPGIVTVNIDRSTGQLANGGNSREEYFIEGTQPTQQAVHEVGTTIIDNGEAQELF
# T5: PBP3 (E. coli) (UniProt P0AD68)
# T5 sequence: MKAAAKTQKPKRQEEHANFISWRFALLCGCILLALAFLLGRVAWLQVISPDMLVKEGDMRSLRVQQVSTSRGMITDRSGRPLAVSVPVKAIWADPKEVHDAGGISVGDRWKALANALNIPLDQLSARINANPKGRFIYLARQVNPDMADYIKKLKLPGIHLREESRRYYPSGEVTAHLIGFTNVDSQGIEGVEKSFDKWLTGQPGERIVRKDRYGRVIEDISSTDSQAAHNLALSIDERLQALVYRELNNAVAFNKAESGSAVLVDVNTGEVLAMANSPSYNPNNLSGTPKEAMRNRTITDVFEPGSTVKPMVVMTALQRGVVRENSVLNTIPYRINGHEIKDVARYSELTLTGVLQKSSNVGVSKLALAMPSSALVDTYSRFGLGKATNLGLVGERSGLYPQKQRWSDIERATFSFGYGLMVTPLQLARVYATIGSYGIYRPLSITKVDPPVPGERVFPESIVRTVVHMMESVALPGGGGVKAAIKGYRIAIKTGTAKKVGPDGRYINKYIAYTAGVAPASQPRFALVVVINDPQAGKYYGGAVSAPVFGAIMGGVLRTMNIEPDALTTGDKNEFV
# Key:
# [1] = molecular target: T1, HisFtsN (full-length FtsN) (E. coli); assay: co-expression and co-purification; HisFtsN or HisFtsN130 co-expressed with PBP1b, co-purified, SDS-PAGE
# [2] = molecular target: T2, HisFtsN130 (FtsN Met1–Arg130) (E. coli); assay: as above
# [3] = molecular target: FtsBLQ complex (E. coli) (UniProt P0A6S5+P0AEN4+P06136); assay: fluorescence polarisation; fluorescence anisotropy; FITC-Lys69–Gln93 probe at 100 nM, serial dilutions of the proteins in their specific buffer, 384-well plates, 30 min at 25 °C; both purified
# [4] = molecular target: T3, FtsW–PBP3 complex (E. coli); assay: as above
# [5] = molecular target: T4, PBP1a (E. coli); assay: as above
# [6] = molecular target: T5, PBP3 (E. coli); assay: as above
binding [1],binding [2],binding [3],binding [4],binding [5],binding [6],Binder
binds,binds,–,–,–,–,"PBP1b co-expressed with HisFtsN or HisFtsN130 (enzyme, UniProt P02919 1-844) MAGNDREPIGRKGKPTRPVKQKVSRRRYEDDDDYDDYDDYEDEEPMPRKGKGKGKGRKPRGKRGWLWLLLKLAIVFAVLIAIYGVYLDQKIRSRIDGKVWQLPAAVYGRMVNLEPDMTISKNEMVKLLEATQYRQVSKMTRPGEFTVQANSIEMIRRPFDFPDSKEGQVRARLTFDGDHLATIVNMENNRQFGFFRLDPRLITMISSPNGEQRLFVPRSGFPDLLVDTLLATEDRHFYEHDGISLYSIGRAVLANLTAGRTVQGASTLTQQLVKNLFLSSERSYWRKANEAYMALIMDARYSKDRILELYMNEVYLGQSGDNEIRGFPLASLYYFGRPVEELSLDQQALLVGMVKGASIYNPWRNPKLALERRNLVLRLLQQQQIIDQELYDMLSARPLGVQPRGGVISPQPAFMQLVRQELQAKLGDKVKDLSGVKIFTTFDSVAQDAAEKAAVEGIPALKKQRKLSDLETAIVVVDRFSGEVRAMVGGSEPQFAGYNRAMQARRSIGSLAKPATYLTALSQPKIYRLNTWIADAPIALRQPNGQVWSPQNDDRRYSESGRVMLVDALTRSMNVPTVNLGMALGLPAVTETWIKLGVPKDQLHPVPAMLLGALNLTPIEVAQAFQTIASGGNRAPLSALRSVIAEDGKVLYQSFPQAERAVPAQAAYLTLWTMQQVVQRGTGRQLGAKYPNLHLAGKTGTTNNNVDTWFAGIDGSTVTITWVGRDNNQPTKLYGASGAMSIYQRYLANQTPTPLNLVPPEDIADMGVDYDGNFVCSGGMRILPVWTSDPQSLCQQSEMQQQPSGNPFDQSSQPQQQPQQQPAQQEQKDSDGVAGWIKDMFGSN"
–,–,no binding,no binding,no binding,no binding,KVTGNGLPPKPEERWRYIKELESRQ (FITC fluorophore attached at the N terminus) [FITC-labeled peptide (FITC-Lys69–Gln93) of FtsN]
